Test results: the supplement of paper PMC10849652
This is one part of the list.

Protein sequences, listed by entry. Tags and fused reporters are not part of them. Lines headed by an entry give the natural chain unless they say otherwise; changes in a name come on top.
UniProt P48426: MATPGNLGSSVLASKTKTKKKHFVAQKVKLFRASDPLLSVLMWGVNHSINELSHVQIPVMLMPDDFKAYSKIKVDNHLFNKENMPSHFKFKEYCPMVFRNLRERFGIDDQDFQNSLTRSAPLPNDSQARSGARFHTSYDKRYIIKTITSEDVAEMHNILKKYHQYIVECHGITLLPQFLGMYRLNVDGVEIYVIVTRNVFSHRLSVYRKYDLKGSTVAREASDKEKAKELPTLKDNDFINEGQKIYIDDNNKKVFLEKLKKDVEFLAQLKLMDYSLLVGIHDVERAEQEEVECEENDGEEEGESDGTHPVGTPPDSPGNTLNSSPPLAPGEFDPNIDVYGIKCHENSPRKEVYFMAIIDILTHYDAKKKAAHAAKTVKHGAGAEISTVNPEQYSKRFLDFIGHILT
UniProt Q969N2: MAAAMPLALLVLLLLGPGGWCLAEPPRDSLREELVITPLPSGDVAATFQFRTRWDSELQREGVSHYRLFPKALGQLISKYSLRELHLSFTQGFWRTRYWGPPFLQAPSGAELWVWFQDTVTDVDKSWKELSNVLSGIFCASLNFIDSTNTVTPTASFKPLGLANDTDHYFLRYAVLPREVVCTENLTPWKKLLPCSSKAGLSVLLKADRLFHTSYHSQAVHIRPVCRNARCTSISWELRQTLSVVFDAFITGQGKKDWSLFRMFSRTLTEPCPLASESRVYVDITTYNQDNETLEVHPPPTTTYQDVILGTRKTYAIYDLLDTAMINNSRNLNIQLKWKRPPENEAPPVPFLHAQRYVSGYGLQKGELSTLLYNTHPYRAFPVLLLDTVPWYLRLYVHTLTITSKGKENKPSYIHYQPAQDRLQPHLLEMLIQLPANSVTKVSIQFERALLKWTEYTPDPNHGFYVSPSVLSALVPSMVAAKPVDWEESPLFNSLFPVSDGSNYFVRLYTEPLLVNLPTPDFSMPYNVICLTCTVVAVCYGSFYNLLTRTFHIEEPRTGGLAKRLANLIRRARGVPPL
UniProt Q9NRX4: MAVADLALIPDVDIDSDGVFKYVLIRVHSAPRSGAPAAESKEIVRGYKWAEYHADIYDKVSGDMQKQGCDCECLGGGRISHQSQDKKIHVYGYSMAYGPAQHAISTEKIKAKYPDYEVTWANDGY
UniProt Q8IZ21: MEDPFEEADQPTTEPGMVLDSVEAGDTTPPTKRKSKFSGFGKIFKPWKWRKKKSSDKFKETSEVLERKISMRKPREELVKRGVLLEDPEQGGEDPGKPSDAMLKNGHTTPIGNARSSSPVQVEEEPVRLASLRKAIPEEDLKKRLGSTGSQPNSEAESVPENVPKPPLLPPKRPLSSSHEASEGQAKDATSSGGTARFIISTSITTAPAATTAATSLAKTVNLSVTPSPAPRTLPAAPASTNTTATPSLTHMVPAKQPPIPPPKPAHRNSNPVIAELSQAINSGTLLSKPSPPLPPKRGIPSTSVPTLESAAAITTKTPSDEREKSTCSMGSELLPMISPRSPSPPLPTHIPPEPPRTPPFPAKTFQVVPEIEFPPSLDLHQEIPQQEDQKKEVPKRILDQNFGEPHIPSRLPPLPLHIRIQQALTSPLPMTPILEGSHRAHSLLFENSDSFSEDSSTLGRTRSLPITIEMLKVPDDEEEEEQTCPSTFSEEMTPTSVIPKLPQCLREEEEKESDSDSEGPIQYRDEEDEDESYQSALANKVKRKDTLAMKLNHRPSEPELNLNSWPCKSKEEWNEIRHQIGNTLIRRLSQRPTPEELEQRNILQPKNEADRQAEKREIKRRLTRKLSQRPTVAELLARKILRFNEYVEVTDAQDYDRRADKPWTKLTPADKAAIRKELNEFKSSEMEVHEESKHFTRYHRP
UniProt O00625: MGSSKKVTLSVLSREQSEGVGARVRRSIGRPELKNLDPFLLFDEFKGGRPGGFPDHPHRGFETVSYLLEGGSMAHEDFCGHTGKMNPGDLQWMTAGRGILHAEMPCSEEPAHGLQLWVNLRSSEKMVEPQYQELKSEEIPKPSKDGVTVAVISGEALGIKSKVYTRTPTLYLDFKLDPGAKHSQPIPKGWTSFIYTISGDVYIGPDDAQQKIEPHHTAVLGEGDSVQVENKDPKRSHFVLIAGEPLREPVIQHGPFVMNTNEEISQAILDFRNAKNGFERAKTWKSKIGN
UniProt Q9H814, whole entry, looked up: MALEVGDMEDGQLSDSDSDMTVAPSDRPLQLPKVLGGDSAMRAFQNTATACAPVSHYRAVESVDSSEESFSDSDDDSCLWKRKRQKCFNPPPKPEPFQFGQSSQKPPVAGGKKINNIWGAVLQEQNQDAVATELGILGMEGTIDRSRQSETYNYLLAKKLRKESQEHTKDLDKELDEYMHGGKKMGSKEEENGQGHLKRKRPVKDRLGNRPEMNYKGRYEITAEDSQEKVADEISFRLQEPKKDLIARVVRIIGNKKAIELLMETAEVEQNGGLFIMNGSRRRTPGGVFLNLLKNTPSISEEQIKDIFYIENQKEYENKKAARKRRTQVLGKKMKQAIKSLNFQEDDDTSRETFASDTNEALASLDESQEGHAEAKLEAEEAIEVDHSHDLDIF
UniProt Q9UG56: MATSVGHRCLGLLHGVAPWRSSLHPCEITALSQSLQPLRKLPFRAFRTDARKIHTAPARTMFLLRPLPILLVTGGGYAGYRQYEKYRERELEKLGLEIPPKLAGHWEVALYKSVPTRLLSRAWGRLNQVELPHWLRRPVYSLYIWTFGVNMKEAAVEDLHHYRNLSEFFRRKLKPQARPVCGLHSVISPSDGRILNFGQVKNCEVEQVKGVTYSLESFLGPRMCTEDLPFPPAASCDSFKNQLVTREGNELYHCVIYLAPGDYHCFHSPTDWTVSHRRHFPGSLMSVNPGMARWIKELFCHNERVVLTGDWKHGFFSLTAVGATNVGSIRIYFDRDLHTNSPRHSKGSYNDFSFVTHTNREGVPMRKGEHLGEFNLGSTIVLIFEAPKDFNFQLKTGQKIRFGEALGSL
UniProt Q16875: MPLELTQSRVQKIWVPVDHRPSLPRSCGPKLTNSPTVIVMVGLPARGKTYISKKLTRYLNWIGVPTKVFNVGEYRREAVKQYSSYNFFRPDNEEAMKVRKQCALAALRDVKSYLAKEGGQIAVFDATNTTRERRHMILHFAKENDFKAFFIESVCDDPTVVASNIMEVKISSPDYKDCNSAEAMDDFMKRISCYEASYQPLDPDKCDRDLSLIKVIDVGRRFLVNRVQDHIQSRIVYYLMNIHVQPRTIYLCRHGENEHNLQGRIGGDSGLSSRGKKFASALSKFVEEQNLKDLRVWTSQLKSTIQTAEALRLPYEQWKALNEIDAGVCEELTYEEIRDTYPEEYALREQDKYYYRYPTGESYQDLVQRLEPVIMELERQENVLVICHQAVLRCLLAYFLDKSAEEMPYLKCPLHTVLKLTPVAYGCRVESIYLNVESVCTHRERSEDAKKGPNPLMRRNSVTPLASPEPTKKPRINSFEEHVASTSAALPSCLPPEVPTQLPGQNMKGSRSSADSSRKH
UniProt Q99570, whole entry, looked up: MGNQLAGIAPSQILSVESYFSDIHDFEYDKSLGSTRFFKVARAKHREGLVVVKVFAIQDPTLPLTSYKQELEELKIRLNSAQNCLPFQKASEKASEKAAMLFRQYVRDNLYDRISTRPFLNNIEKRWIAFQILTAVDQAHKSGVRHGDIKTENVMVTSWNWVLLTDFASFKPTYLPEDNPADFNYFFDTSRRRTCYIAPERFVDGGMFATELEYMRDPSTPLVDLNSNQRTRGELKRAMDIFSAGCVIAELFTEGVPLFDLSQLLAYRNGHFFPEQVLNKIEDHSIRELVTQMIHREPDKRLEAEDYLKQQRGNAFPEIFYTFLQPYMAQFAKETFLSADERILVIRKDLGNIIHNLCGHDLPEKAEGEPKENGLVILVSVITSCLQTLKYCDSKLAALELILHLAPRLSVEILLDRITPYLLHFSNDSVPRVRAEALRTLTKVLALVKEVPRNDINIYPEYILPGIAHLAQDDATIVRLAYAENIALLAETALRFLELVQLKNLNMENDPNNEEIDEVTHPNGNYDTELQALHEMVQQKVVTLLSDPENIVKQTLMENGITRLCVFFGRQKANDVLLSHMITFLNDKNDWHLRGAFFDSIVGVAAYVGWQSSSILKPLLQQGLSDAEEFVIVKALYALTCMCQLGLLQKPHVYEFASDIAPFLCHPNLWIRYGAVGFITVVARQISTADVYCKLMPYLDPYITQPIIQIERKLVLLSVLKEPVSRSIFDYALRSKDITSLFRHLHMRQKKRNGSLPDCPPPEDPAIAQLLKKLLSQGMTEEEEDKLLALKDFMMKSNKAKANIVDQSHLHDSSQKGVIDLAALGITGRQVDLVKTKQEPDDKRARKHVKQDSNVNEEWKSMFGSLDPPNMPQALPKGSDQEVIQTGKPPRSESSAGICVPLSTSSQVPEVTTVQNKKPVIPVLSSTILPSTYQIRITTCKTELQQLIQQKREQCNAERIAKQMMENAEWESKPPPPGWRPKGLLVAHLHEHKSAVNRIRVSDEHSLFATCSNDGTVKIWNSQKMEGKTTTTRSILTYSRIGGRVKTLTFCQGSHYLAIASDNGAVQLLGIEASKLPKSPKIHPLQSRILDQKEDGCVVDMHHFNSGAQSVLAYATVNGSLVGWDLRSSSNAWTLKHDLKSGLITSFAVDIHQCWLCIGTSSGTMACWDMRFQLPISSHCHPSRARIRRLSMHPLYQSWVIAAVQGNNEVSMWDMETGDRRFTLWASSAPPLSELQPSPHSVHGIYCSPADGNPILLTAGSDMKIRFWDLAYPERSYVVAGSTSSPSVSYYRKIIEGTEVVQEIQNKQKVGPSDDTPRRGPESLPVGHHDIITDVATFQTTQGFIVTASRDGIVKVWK
UniProt A6NDG6: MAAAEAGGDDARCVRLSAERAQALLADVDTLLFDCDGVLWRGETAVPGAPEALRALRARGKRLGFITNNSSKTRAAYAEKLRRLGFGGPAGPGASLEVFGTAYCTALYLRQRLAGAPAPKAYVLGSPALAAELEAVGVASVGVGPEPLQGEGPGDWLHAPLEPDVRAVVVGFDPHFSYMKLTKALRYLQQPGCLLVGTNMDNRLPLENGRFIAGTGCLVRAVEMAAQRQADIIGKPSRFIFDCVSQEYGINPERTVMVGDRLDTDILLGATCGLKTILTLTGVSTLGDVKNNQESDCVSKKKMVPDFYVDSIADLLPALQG
UniProt O60925, whole entry, looked up: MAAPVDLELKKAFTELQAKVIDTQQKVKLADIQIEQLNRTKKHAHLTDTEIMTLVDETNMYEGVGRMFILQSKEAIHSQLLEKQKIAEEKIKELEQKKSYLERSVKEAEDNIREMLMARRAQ
UniProt P60673: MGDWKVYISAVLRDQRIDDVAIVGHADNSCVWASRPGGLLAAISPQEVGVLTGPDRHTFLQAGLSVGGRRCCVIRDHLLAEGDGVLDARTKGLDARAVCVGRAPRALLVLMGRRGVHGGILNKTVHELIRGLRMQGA
UniProt P0C869: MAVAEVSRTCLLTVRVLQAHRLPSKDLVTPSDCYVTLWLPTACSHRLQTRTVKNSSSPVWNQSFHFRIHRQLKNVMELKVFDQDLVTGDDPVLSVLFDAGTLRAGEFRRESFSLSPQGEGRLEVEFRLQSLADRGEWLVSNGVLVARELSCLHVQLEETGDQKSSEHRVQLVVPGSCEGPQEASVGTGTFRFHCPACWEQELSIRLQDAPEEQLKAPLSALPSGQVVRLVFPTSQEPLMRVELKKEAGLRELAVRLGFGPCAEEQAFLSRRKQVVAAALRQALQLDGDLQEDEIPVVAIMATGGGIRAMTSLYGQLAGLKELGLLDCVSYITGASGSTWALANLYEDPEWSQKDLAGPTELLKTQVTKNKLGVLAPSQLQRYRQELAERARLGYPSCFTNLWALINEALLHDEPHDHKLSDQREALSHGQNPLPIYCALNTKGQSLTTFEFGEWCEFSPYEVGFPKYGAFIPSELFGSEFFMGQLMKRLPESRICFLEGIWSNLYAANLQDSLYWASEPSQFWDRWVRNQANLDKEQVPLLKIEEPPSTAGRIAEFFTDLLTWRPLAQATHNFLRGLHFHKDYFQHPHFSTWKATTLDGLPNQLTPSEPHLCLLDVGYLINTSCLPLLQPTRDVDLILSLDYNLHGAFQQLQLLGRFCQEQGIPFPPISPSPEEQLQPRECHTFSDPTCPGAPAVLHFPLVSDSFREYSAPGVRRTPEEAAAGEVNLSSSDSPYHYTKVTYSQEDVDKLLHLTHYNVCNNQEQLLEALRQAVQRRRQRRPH
UniProt P15735: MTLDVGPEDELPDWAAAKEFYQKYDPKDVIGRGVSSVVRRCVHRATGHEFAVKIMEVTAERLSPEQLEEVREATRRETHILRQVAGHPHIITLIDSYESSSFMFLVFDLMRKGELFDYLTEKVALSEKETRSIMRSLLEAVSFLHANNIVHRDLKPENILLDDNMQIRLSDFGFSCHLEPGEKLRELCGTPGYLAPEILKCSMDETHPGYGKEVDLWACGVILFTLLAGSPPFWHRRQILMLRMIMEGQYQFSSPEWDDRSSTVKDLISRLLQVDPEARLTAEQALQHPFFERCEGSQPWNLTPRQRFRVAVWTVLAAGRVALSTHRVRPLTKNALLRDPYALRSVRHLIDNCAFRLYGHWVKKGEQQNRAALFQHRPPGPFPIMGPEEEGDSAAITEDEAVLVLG

Assays:
Test in all cases: log2 fold change, soluble protein after heating vs DMSO (PISA); higher = thermal stabilisation; K562 cells, 10 uM, 30 min; active = over 0.2 and 3.5 SD of the protein, either way, in both replicates (recomputed)
[1] = compound: NC(=O)Nc1cc(-c2cccc(F)c2)sc1C(=O)N[C@H]1CCCNC1
In short: (§1)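 K562 cells at 2×10^6 cells/mL were given 10 μM compound for 30 min. Aliquots then went through 3 min of heating across 48°C-58°C, were pooled, and were extracted in PBS with 0.5% NP-40 at 4°C, and the supernatant after 21,000xg for 90 min was quantified by TMTpro 16plex LC-MS/MS with channel sums equalised. Thermal stability relative to control samples, from duplicates, is given as log2 fold change.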

[2] = compound: NC(=O)c1cnc(N[C@@H]2CCCC[C@@H]2N)nc1Nc1cccc(-n2nccn2)c1
In short: as §1

[3] = compound: NC1(c2ccc(-c3nc4ccn5c(=O)[nH]nc5c4cc3-c3ccccc3)cc2)CCC1
In short: as §1

[4] = compound: NCC(=O)Nc1ccc(-n2nc(C(F)(F)F)cc2-c2ccc3c(ccc4ccccc43)c2)cc1
In short: as §1

entinostat = compound: Nc1ccccc1NC(=O)c1ccc(CNC(=O)OCc2cccnc2)cc1 [entinostat]
In short: as §1

vorinostat = compound: O=C(CCCCCCC(=O)Nc1ccccc1)NO [vorinostat]
In short: as §1

citarinostat = compound: O=C(CCCCCCNC(=O)c1cnc(N(c2ccccc2)c2ccccc2Cl)nc1)NO [citarinostat]
In short: as §1

silmitasertib = compound: O=C(O)c1ccc2c(c1)nc(Nc1cccc(Cl)c1)c1ccncc12 [silmitasertib]
In short: as §1

[5] = compound: O=C1NC(=O)C(c2cnc3ccccn23)=C1c1cn2c3c(cc(F)cc13)CN(C(=O)N1CCCCC1)CC2
In short: as §1

[6] = compound: c1cc(OCCN2CCCCC2)cc(-c2n[nH]c3ccc(-c4nnc[nH]4)cc23)c1
In short: as §1

Target | log2 fold change [1] | log2 fold change [2] | log2 fold change [3] | log2 fold change [4] | log2 fold change (entinostat) | log2 fold change (vorinostat) | log2 fold change (citarinostat) | log2 fold change (silmitasertib) | log2 fold change [5] | log2 fold change [6]
PIP4P1 isoform 2 (UniProt Q86T03) | inactive: 0.012 | inactive: 0.086 | inactive: -0.326 | inactive: 0.095 | inactive: 0.042 | inactive: -0.019 | inactive: 0.01 | inactive: 0.054 | inactive: 0.043 | inactive: -0.031
PIP4K2A (UniProt P48426) | inactive: -0.026 | inactive: 0.013 | inactive: -0.086 | inactive: 0.113 | inactive: 0.026 | inactive: -0.037 | inactive: 0.004 | inactive: 0.259 | inactive: 0.057 | inactive: -0.057
PHACTR2 isoform 4 (UniProt O75167) | inactive: -0.097 | inactive: -0.126 | inactive: 0.064 | inactive: -0.03 | inactive: 0.008 | inactive: -0.118 | inactive: -0.027 | inactive: 0.03 | inactive: 0.01 | inactive: -0.095
PIGT (UniProt Q969N2) | inactive: -0.01 | inactive: -0.002 | inactive: -0.077 | inactive: -0.002 | inactive: 0.018 | inactive: 0.05 | inactive: 0.04 | inactive: 0 | inactive: -0.01 | inactive: -0.089
PHPT1 (UniProt Q9NRX4) | inactive: -0.049 | inactive: -0.066 | inactive: -0.025 | inactive: -0.014 | inactive: 0 | inactive: -0.024 | inactive: 0.019 | inactive: 0.01 | inactive: -0.072 | inactive: 0.018
PICALM (UniProt Q13492) | inactive: -0.021 | inactive: -0.029 | inactive: -0.066 | inactive: -0.023 | inactive: 0.004 | inactive: -0.002 | inactive: 0.026 | inactive: -0.019 | inactive: -0.081 | inactive: -0.028
PIKFYVE (UniProt Q9Y2I7) | inactive: 0.029 | inactive: -0.055 | inactive: -0.256 | inactive: -0.072 | inactive: 0.09 | inactive: 0.021 | inactive: -0.047 | inactive: 0.006 | inactive: -0.069 | inactive: -0.08
PHACTR4 isoform 2 (UniProt Q8IZ21) | inactive: -0.056 | inactive: 0 | inactive: 0.057 | inactive: -0.007 | inactive: -0.031 | inactive: -0.019 | inactive: 0.024 | inactive: -0.012 | inactive: -0.027 | inactive: -0.004
PGD (UniProt P52209) | inactive: -0.012 | inactive: 0.007 | inactive: -0.069 | inactive: -0.009 | inactive: -0.01 | inactive: 0.019 | inactive: 0.011 | inactive: -0.058 | inactive: -0.026 | inactive: -0.006
PHF6 (UniProt Q8IWS0) | inactive: -0.005 | inactive: 0.063 | inactive: 0.307 | inactive: 0.031 | inactive: -0.061 | inactive: 0.005 | inactive: -0.027 | inactive: 0.137 | inactive: 0.076 | inactive: -0.152
PIR (UniProt O00625) | inactive: -0.047 | inactive: -0.053 | inactive: -0.195 | inactive: -0.024 | inactive: -0.022 | active: -0.625 | inactive: -0.014 | inactive: -0.038 | inactive: -0.012 | active: 0.253
PHAX (UniProt Q9H814) | inactive: 0.008 | inactive: -0.084 | inactive: -0.003 | inactive: 0.013 | inactive: -0.022 | inactive: -0.006 | inactive: 0.041 | inactive: 0.092 | inactive: 0.046 | inactive: -0.029
PISD (UniProt Q9UG56) | inactive: 0.023 | inactive: 0.019 | inactive: -0.009 | inactive: 0.045 | inactive: -0.047 | inactive: 0.069 | inactive: 0.035 | inactive: -0.019 | inactive: -0.097 | inactive: -0.006
PFKFB3 isoform 4 (UniProt Q16875) | inactive: 0.068 | inactive: 0.024 | inactive: -0.075 | inactive: 0.017 | inactive: 0.046 | inactive: 0.025 | inactive: 0.107 | inactive: -0.055 | inactive: -0.03 | inactive: -0.027
PGRMC2 isoform 2 (UniProt O15173) | inactive: 0.046 | inactive: 0.062 | inactive: 0.079 | inactive: 0.073 | inactive: 0.016 | inactive: 0.008 | inactive: 0.017 | inactive: -0.024 | inactive: -0.073 | inactive: 0
PIK3R4 (UniProt Q99570) | inactive: -0.036 | inactive: 0.056 | inactive: 0.009 | inactive: -0.046 | inactive: -0.02 | inactive: -0.039 | inactive: 0.016 | inactive: 0.043 | inactive: 0.01 | inactive: 0.031

Target | log2 fold change [1] | log2 fold change [2] | log2 fold change [3] | log2 fold change [4] | log2 fold change (entinostat) | log2 fold change (vorinostat) | log2 fold change (citarinostat) | log2 fold change (silmitasertib) | log2 fold change [5] | log2 fold change [6]
PGP (UniProt A6NDG6) | inactive: -0.005 | inactive: 0.011 | inactive: 0.024 | inactive: 0.021 | inactive: -0.025 | inactive: -0.009 | inactive: -0.017 | inactive: -0.02 | inactive: -0.02 | inactive: -0.006
PLBD1 (UniProt Q6P4A8) | inactive: 0.008 | inactive: -0.061 | inactive: -0.076 | inactive: -0.039 | inactive: 0.008 | inactive: -0.038 | inactive: -0.018 | inactive: 0.003 | inactive: -0.027 | inactive: 0.409
PFDN1 (UniProt O60925) | inactive: 0.013 | inactive: 0.003 | inactive: 0.002 | inactive: -0.047 | inactive: 0.044 | inactive: -0.056 | inactive: 0.09 | inactive: -0.029 | inactive: -0.05 | inactive: -0.001
PITRM1 isoform 2 (UniProt Q5JRX3) | inactive: 0.116 | inactive: -0.077 | inactive: -0.051 | inactive: -0.061 | inactive: 0.097 | inactive: 0.089 | inactive: 0.104 | inactive: -0.045 | inactive: 0.05 | inactive: 0.096
PGM2 (UniProt Q96G03) | inactive: 0.019 | inactive: 0.023 | inactive: -0.02 | inactive: 0.043 | inactive: 0.002 | inactive: -0.006 | inactive: 0.047 | inactive: -0.012 | inactive: -0.027 | inactive: 0
PIK3CB (UniProt P42338) | inactive: -0.057 | inactive: -0.106 | inactive: -0.008 | inactive: -0.102 | inactive: 0.014 | inactive: 0.001 | inactive: 0.003 | inactive: -0.053 | inactive: -0.039 | inactive: -0.049
PHF5A (UniProt Q7RTV0) | inactive: -0.004 | inactive: 0.009 | inactive: 0.101 | inactive: 0.051 | inactive: -0.017 | inactive: -0.08 | inactive: 0.014 | inactive: 0.082 | inactive: -0.024 | inactive: -0.003
PFN3 (UniProt P60673) | inactive: -0.021 | inactive: -0.59 | inactive: -0.856 | inactive: 0.002 | inactive: 0.065 | inactive: 0.092 | inactive: -0.282 | inactive: -0.128 | inactive: -0.281 | inactive: -0.158
PLA2G4B isoform 6 (UniProt P0C869) | inactive: 0.056 | inactive: -0.088 | inactive: 0.093 | inactive: 0.015 | inactive: 0.037 | inactive: 0.06 | – | inactive: 0.026 | – | –
PHKG2 (UniProt P15735) | active: 0.417 | inactive: 0.088 | inactive: -0.064 | inactive: -0.035 | inactive: -0.007 | inactive: 0 | inactive: 0.122 | inactive: 0.052 | inactive: 0.023 | inactive: -0.045
PI4K2B (UniProt Q8TCG2) | inactive: 0.092 | active: 0.704 | inactive: -0.08 | inactive: -0.069 | inactive: 0.066 | inactive: -0.021 | inactive: 0.075 | inactive: 0.051 | – | inactive: 0.111
PLCD1 isoform 2 (UniProt P51178) | inactive: 0.02 | inactive: -0.116 | inactive: -0.168 | inactive: -0.003 | inactive: 0.063 | inactive: 0.118 | inactive: 0.006 | inactive: -0.082 | inactive: -0.014 | inactive: -0.039
PJA2 (UniProt O43164) | inactive: -0.006 | inactive: -0.047 | inactive: -0.049 | inactive: 0.029 | inactive: 0.004 | inactive: -0.001 | inactive: -0.005 | inactive: 0.026 | inactive: -0.059 | inactive: -0.075
PIK3CA (UniProt P42336) | inactive: 0.109 | inactive: -0.031 | inactive: 0 | – | inactive: 0.05 | – | – | inactive: 0.053 | inactive: 0.102 | –
PEX5 isoform 4 (UniProt P50542) | inactive: 0.019 | inactive: 0.002 | – | inactive: 0.041 | inactive: 0 | – | – | – | inactive: 0.163 | –

As entered above:
log2 fold change (silmitasertib) with PJA2 (UniProt O43164) reads inactive: 0.026
log2 fold change [1] with PI4K2B (UniProt Q8TCG2) reads inactive: 0.092
